From US20050170468A1 (published 2005)
No constants are given. Whether binding was seen depends on the method and setting. Some entries that bind do so weakly or less than the wild type.

Key:
[1] = molecular target: T1, IL-20RA/IL-20RB heterodimeric receptor (on cells) (human) (UniProt Q9UHF4); assay: cell-based binding assay (secretion trap) on transiently transfected COS cells
T1 sequence 1: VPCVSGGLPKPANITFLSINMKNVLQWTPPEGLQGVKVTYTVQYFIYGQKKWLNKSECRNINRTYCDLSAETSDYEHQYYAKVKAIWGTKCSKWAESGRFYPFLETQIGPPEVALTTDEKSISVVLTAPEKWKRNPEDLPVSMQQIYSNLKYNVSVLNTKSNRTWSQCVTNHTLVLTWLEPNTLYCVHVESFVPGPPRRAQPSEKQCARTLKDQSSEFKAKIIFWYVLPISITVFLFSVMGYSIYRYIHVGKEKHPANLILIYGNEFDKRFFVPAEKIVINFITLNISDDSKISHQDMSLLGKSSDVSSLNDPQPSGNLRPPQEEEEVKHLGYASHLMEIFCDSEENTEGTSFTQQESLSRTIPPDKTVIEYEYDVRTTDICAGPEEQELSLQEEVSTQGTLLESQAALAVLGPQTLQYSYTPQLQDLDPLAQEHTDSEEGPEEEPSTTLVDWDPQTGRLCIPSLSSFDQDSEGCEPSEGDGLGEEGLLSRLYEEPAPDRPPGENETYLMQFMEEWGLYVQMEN
T1 sequence 2: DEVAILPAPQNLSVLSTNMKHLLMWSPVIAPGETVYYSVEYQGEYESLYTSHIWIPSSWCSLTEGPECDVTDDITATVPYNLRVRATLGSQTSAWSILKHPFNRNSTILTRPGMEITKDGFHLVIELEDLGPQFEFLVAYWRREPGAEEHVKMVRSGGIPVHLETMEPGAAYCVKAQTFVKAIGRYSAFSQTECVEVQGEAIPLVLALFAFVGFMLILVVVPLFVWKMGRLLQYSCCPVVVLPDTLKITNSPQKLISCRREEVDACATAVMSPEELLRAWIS

[2] = molecular target: T1, IL-20RA/IL-20RB heterodimeric receptor (on cells) (human); assay: radiolabeled ligand binding assay on stably transfected BHK cells
[3] = molecular target: T1, IL-20RA/IL-20RB heterodimeric receptor (on cells) (human); assay: binding to transfected cell lines, told in words

- binding [1]: binds
- binding [2]: binds
- binding [3]: binds
B1: IL-20 (ligand)
chain: LKTLNLGSCVIATNLQEIRNGFSDIRGSVQAKDGNIDIRILRRTESLQDTKPANRCCLLRHLLRLYLDRVFKNYQTPDHYTLRKISSLANSFLTIKKDLRLCHAHMTCHCGEEAMKKYSQILSHFEKLEPQAAVVKALGELDILLQWMEETE
modifications: biotin label in Example 6; 125I label in Example 10
notes: also called Zcyto10; biotinylated IL-20 protein
